Literature values as cited in patent publication US20220160704A2, “COMPOSITIONS FOR OPIATE AND OPIOID PREVENTION AND REVERSAL, AND METHODS OF THEIR USE” (Torralva Medical Therapeutics LLC, priority 2018, published 2022).

Conditions: cited from earlier work

In the case of `C=CCN1CC[C@]23c4c5ccc(O)c4O[C@H]2C(=O)CC[C@@]3(O)[C@H]1C5.Cl` [Naloxone hydrochloride, 17-Allyl-4,5α-epoxy-3,14-dihydroxymorphinan-6-one hydrochloride], the “Complications of high dose in active opioid users” value (e.g. 0.2 mg/kg) is given as “regularly precipitate severe cardiac arrhythmias, hemodynamic instability and pulmonary edema” and the “Duration of withdrawal symptoms in naloxone challenge test” value (human, in vivo) is given as 5 to 10 min.
